Experimental findings from the supplement of paper PMC12067093, “Discovery and optimisation of a covalent ligand for TRIM25 and its application to targeted protein ubiquitination” (Chemical Science, 2025) are described below.

Sequences of proteins named here, by UniProt entry; tags and fusion partners are left off. A change or cut given only in a name is not applied to a line headed by its entry.
UniProt Q9Y3S2: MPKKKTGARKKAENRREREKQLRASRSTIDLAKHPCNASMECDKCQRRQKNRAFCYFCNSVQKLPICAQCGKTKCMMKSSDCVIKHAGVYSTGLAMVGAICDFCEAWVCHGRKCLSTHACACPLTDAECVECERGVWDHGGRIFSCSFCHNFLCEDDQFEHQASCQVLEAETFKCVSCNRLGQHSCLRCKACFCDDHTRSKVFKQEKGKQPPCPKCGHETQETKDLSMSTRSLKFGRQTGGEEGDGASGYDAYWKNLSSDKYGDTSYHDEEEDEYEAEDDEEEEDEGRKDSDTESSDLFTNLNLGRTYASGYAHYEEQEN
UniProt Q6N043: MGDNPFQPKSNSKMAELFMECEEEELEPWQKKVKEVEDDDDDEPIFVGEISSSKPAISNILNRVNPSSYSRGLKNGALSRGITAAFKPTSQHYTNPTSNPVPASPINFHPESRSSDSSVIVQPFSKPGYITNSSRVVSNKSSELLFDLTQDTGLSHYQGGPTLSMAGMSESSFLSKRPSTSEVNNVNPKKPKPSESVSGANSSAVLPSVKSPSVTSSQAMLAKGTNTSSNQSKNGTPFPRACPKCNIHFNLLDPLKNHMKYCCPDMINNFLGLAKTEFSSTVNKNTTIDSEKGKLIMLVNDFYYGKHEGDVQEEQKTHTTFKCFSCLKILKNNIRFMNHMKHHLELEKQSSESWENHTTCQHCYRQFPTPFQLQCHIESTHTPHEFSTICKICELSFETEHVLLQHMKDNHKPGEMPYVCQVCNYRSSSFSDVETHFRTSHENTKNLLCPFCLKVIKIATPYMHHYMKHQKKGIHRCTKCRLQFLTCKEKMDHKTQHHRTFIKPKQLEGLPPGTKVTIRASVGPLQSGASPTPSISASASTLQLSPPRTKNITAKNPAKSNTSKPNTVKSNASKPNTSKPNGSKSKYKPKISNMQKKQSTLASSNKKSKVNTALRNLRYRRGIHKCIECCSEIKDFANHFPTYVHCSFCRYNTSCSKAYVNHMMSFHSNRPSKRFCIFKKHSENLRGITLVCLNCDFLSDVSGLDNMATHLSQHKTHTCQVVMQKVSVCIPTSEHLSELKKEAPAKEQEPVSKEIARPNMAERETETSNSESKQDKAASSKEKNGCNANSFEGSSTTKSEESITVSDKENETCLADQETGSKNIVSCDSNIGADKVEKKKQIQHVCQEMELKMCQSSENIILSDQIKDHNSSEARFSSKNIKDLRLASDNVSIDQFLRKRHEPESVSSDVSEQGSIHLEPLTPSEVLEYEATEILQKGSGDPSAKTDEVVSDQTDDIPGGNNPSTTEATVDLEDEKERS
UniProt Q86UK7: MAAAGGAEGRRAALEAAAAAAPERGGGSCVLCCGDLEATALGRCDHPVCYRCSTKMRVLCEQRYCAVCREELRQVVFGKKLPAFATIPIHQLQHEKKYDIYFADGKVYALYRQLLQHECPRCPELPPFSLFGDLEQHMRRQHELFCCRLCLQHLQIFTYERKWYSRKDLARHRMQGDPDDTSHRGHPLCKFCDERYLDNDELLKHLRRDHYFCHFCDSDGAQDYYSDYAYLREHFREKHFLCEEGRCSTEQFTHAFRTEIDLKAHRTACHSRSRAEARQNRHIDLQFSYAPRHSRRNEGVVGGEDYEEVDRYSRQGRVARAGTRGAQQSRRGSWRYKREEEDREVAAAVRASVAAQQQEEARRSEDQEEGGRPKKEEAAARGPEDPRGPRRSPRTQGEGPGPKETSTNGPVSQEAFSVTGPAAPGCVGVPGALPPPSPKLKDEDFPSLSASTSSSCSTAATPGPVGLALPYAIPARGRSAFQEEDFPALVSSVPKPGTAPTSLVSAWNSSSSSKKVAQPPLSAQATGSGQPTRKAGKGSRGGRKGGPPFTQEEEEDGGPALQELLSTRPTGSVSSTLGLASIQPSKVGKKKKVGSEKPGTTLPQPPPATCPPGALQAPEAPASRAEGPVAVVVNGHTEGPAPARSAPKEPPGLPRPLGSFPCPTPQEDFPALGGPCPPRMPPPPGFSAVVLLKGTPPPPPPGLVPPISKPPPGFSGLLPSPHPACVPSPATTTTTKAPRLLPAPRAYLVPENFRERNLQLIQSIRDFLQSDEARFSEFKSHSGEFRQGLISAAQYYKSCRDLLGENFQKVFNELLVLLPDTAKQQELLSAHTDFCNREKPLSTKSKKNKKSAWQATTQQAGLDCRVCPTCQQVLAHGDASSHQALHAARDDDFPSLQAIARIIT
UniProt Q96KR1: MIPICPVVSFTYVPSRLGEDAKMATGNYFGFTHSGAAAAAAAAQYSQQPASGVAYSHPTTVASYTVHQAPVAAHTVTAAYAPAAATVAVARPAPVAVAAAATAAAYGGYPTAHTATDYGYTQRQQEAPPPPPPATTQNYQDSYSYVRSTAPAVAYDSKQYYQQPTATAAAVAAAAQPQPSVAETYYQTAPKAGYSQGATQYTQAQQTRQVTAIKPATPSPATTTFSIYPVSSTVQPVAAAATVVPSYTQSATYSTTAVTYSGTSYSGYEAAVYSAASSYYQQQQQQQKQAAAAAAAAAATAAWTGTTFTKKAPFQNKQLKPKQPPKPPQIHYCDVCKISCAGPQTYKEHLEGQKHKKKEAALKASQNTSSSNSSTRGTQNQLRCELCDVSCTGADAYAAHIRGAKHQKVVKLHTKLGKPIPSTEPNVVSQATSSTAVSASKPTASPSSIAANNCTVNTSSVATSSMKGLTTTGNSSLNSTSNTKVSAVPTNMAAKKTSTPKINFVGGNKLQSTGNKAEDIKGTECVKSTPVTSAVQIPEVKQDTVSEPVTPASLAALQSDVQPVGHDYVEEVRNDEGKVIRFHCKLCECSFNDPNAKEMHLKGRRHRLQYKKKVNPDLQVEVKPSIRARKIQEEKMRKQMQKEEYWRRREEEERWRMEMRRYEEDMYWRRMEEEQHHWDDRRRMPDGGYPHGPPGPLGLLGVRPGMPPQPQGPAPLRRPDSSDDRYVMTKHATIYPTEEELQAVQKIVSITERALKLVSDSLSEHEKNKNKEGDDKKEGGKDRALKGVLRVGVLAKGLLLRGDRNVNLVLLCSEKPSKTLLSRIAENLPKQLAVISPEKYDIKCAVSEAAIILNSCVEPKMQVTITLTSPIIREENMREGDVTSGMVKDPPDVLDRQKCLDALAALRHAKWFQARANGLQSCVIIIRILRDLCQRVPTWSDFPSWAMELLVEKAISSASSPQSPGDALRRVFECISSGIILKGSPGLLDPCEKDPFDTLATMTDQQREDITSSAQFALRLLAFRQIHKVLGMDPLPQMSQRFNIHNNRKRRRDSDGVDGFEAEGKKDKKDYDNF
UniProt Q96JP5: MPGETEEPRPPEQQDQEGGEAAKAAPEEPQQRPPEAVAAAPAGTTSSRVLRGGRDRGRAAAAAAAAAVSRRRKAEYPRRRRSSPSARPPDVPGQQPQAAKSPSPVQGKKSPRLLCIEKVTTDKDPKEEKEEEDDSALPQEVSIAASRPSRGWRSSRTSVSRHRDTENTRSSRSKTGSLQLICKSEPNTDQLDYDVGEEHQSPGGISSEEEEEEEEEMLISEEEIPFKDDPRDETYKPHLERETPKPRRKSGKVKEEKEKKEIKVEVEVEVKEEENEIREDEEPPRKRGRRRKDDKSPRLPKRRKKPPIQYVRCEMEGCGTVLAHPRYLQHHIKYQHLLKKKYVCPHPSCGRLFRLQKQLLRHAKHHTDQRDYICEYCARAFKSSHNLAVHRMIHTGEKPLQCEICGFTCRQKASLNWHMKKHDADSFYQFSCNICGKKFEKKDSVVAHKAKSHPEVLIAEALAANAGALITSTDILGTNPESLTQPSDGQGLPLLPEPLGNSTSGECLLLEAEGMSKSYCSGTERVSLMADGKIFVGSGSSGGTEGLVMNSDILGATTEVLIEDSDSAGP
UniProt Q9Y4E5: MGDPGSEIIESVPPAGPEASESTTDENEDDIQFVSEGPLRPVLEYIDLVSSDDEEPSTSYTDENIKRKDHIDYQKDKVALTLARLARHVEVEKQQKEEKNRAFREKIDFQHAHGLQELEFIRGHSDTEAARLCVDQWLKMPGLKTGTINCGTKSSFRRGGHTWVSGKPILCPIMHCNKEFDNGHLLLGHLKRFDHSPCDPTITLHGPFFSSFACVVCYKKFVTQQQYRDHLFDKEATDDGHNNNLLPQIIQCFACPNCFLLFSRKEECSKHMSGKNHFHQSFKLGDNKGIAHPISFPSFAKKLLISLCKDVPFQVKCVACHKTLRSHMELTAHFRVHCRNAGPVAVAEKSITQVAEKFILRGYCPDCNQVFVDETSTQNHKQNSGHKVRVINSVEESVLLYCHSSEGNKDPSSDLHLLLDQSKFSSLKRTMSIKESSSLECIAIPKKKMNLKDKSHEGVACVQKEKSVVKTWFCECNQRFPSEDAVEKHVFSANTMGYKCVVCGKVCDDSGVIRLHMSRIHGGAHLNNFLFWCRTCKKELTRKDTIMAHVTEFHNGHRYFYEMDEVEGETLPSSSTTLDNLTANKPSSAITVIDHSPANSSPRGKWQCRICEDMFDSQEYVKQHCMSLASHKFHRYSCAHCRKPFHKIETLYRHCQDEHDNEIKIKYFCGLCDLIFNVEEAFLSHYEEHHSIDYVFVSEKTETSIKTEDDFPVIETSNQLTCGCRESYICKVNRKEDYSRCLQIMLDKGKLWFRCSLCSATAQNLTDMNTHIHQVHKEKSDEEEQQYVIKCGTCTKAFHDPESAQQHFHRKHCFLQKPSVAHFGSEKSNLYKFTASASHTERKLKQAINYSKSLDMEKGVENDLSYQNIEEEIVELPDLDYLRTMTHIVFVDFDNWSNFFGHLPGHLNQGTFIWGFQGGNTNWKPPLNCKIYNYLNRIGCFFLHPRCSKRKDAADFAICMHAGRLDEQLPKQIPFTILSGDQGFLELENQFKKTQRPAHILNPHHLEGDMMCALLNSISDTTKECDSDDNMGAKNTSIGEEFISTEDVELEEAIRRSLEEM
UniProt Q8N1G0: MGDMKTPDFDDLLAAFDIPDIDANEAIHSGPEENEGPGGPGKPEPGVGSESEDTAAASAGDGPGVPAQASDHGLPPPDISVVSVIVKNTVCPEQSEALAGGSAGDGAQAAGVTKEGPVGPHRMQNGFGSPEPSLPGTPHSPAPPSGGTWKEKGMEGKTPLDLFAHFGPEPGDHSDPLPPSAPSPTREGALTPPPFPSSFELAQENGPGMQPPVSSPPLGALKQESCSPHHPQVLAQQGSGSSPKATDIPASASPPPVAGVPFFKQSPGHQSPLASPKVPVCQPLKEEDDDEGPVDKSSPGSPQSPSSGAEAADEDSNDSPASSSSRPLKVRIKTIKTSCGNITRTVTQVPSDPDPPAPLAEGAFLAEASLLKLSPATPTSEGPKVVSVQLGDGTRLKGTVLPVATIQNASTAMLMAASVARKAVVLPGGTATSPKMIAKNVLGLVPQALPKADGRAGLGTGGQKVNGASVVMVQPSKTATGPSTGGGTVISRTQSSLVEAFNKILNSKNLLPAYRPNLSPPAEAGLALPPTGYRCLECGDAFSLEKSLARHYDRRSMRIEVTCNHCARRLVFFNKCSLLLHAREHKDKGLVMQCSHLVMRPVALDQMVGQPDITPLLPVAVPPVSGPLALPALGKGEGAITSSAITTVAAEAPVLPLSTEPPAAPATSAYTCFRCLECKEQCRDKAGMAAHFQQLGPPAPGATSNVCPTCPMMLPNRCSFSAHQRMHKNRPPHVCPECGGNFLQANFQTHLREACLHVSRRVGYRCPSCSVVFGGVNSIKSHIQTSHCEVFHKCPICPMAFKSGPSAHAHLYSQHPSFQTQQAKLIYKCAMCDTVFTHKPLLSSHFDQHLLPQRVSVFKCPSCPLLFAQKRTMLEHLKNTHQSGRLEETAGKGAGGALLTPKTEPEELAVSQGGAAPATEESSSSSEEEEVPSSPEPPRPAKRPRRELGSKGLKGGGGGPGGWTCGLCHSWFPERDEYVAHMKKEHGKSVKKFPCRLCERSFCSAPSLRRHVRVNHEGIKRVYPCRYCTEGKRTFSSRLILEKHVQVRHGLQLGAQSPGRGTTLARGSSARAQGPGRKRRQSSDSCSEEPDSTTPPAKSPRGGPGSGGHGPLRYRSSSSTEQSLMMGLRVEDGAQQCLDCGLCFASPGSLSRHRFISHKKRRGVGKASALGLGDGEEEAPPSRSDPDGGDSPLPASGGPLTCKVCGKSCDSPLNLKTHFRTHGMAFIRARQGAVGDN
UniProt Q15973: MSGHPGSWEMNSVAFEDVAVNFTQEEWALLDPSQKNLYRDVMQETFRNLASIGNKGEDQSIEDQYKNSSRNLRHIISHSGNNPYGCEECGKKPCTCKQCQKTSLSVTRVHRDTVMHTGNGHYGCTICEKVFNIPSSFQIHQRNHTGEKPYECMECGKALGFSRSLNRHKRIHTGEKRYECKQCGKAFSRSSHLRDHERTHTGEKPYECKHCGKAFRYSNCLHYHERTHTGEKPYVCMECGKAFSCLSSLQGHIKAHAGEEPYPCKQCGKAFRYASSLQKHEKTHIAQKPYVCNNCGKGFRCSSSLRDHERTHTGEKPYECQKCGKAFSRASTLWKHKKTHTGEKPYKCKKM

This is one part of the list.

Compound in this assay: CC1Cc2ccccc2N1C(=O)C1CCCN(C1)C(=O)CCl (mixture of isomers) [TRIM25 ligand 11 (diastereomer mixture)]
Put plainly: probe-labelled cysteine peptide fold change vs DMSO (competition) (log2 fold change); higher = less target engagement (more negative = stronger competition). The note with it: THP-1, incubation time: 4 h.
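Also: competitive chemoproteomic profiling in live THP-1 cells with an iodoacetamide desthiobiotin (IA-DTB) probe, comparing probe-labelled peptide intensities in compound-treated cells against DMSO-treated controls.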

With “ZNF131_P52739_9_MEAEETMECLQEFPEHHK (UniProt P52739)”, the “probe-labelled cysteine peptide fold change” value was -0.0981 (10 µM) and -0.376 (50 µM).

For “ZNF318_Q5VUA4_1740_SELDLGEPGPPGVEPPPQLLDIQCK (UniProt Q5VUA4)”, the “probe-labelled cysteine peptide fold change” value is 0.0837 (10 µM) and -0.104 (50 µM).

For “ZNF330_Q9Y3S2_82_SSDCVIK (UniProt Q9Y3S2)”, the “probe-labelled cysteine peptide fold change” value runs as follows: (10 µM) -0.00147; (50 µM) -0.0344.

As for “ZNF521_Q96K83_31_TEDGEALDCK (UniProt Q96K83)”, the “probe-labelled cysteine peptide fold change” value runs as follows: (10 µM) 0.127; (50 µM) -0.12.

As for “ZNF649_Q9BS31_183_AHECTDCGK (UniProt Q9BS31)”, the “probe-labelled cysteine peptide fold change” value amounted to 0.0798 (10 µM) and 0.285 (50 µM).

As to “ZNF516_Q92618_1016_TLATCAAGSR (UniProt Q92618)”, the “probe-labelled cysteine peptide fold change” value was 0.000755 (10 µM) and -0.0966 (50 µM).

As to “ZNF280D_Q6N043_630_CIECCSEIK (UniProt Q6N043)”, the “probe-labelled cysteine peptide fold change” value is -0.00597 (10 µM) and 0.171 (50 µM).

Consider “ZNF280C_Q8ND82_734_STSTSEPTTGCSLK (UniProt Q8ND82)”, for which the “probe-labelled cysteine peptide fold change” value is -0.014 (10 µM) and -0.213 (50 µM).

On to “ZFC3H1_O60293_1141_TMEVKPCPFRPYHSPLLVFK (UniProt O60293)”, for which the “probe-labelled cysteine peptide fold change” value (10 µM) was -0.0675 and the “probe-labelled cysteine peptide fold change” value (50 µM) was -0.197.

Regarding “ZGRF1_Q86YA3_2008_EIIILSCVR (UniProt Q86YA3)”, the “probe-labelled cysteine peptide fold change” value is, setting by setting: (10 µM) -0.044; (50 µM) 0.379.

As for “ZNF24_P17028_189_HCDDDGRTENGALAPK (UniProt P17028)”, the “probe-labelled cysteine peptide fold change” value is, setting by setting: (10 µM) -0.0706; (50 µM) -0.138.

“ZNF598_Q86UK7_119_QLLQHECPR (UniProt Q86UK7)”: the “probe-labelled cysteine peptide fold change” value (10 µM) is 0.0152 and the “probe-labelled cysteine peptide fold change” value (50 µM) was 0.0167.

With “ZMYND8_Q9ULU4_103_EGQVLCCELCPR (UniProt Q9ULU4)”, the “probe-labelled cysteine peptide fold change” value is 0.179 (10 µM) and -0.0752 (50 µM).

For “ZNF598_Q86UK7_33_GGGSCVLCCGDLEATALGR (UniProt Q86UK7)”, the “probe-labelled cysteine peptide fold change” value was -0.0941 (10 µM) and -0.0479 (50 µM).

On to “ZFR_Q96KR1_899_CLDALAALR (UniProt Q96KR1)”, for which the “probe-labelled cysteine peptide fold change” value (10 µM) is -0.107 and the “probe-labelled cysteine peptide fold change” value (50 µM) turned out to be 0.0232.

As to “ZFP91_Q96JP5_313+318_CEMEGCGTVLAHPR (UniProt Q96JP5)”, the “probe-labelled cysteine peptide fold change” value (10 µM) is -0.193 and the “probe-labelled cysteine peptide fold change” value (50 µM) was -0.222.

With “ZMYND8_Q9ULU4_91_NDFYCWVCHR (UniProt Q9ULU4)”, the “probe-labelled cysteine peptide fold change” value is, setting by setting: (10 µM) 0.0216; (50 µM) 0.0194.

“ZNF330_Q9Y3S2_194_ACFCDDHTR (UniProt Q9Y3S2)”: the “probe-labelled cysteine peptide fold change” value is -0.137 (10 µM) and -0.198 (50 µM).

Turning to “ZNF638_Q14966_1947_AMTNHCK (UniProt Q14966)”, the “probe-labelled cysteine peptide fold change” value is -0.149 (10 µM) and -0.253 (50 µM).

Take “ZMYM3_Q14202_747_HFCNQQCLLR (UniProt Q14202)”: the “probe-labelled cysteine peptide fold change” value (10 µM) amounted to 0.0965 and the “probe-labelled cysteine peptide fold change” value (50 µM) amounted to 0.162.

Turning to “ZNF451_Q9Y4E5_959_DAADFAICMHAGR (UniProt Q9Y4E5)”, the “probe-labelled cysteine peptide fold change” value is, setting by setting: (10 µM) -0.0144; (50 µM) -0.0466.

Turning to “ZNF687_Q8N1G0_91_NTVCPEQSEALAGGSAGDGAQAAGVTK (UniProt Q8N1G0)”, the “probe-labelled cysteine peptide fold change” value is -0.0289 (10 µM) and -0.374 (50 µM).

For “ZMYM3_Q14202_1326_SCIAESPLWYSVIPMDR (UniProt Q14202)”, the “probe-labelled cysteine peptide fold change” value was determined as 0.00722 (10 µM) and 0.0429 (50 µM).

“ZNF638_Q14966_1156_ATCDSDFAVETLELETQGEEVK (UniProt Q14966)”: the “probe-labelled cysteine peptide fold change” value is, setting by setting: (10 µM) 0.163; (50 µM) -0.289.

For the target “ZFAND5_O76080_170_CGNLFCGLHR (UniProt O76080)”, the “probe-labelled cysteine peptide fold change” value was -0.114 (10 µM) and 0.258 (50 µM).

As to “ZFR_Q96KR1_384+387+391_CELCDVSCTGADAYAAHIR (UniProt Q96KR1)”, the “probe-labelled cysteine peptide fold change” value was -0.0294 (10 µM) and -0.0154 (50 µM).

For “ZFP91_Q96JP5_520_SYCSGTER (UniProt Q96JP5)”, the “probe-labelled cysteine peptide fold change” value runs as follows: (10 µM) -0.0136; (50 µM) -0.24.

With “ZNF691_Q5VV52_176_CQESFR (UniProt Q5VV52)”, the “probe-labelled cysteine peptide fold change” value (10 µM) amounted to 0.0422 and the “probe-labelled cysteine peptide fold change” value (50 µM) amounted to 0.196.

For the target “ZMYM3_Q14202_1048_RLVLSESCSR (UniProt Q14202)”, the “probe-labelled cysteine peptide fold change” value (10 µM) came to 0.141 and the “probe-labelled cysteine peptide fold change” value (50 µM) came to 0.161.

For “ZNF451_Q9Y4E5_507_VCDDSGVIR (UniProt Q9Y4E5)”, the “probe-labelled cysteine peptide fold change” value runs as follows: (10 µM) 0.0216; (50 µM) 0.0515.

Turning to “ZNF687_Q8N1G0_860_CPSCPLLFAQK (UniProt Q8N1G0)”, the “probe-labelled cysteine peptide fold change” value runs as follows: (10 µM) -0.0564; (50 µM) -0.0593.

Turning to “ZNF574_Q6ZN55_656_CAAAAAQAPR (UniProt Q6ZN55)”, the “probe-labelled cysteine peptide fold change” value is, setting by setting: (10 µM) 0.0507; (50 µM) -0.0462.

As to “ZNF326_Q5BKZ1_12_MDFEDDYTHSACR (UniProt Q5BKZ1)”, the “probe-labelled cysteine peptide fold change” value reads like this: (10 µM) 0.121; (50 µM) -0.303.

With “ZNF280D_Q6N043_827_NIVSCDSNIGADKVEK (UniProt Q6N043)”, the “probe-labelled cysteine peptide fold change” value (10 µM) is -0.321 and the “probe-labelled cysteine peptide fold change” value (50 µM) was -0.255.

On to “ZNF143_P52747_364_THTGERPYYCTEPGCGR (UniProt P52747)”, for which the “probe-labelled cysteine peptide fold change” value came to 0.214 (10 µM) and 0.0623 (50 µM).

Take “ZNF384_Q8TF68_408_CHNCHR (UniProt Q8TF68)”: the “probe-labelled cysteine peptide fold change” value is, setting by setting: (10 µM) -0.00024; (50 µM) 0.0311.

With “ZFR_Q96KR1_333_QPPKPPQIHYCDVCK (UniProt Q96KR1)”, the “probe-labelled cysteine peptide fold change” value stood at 0.0383 (10 µM) and 0.0548 (50 µM).

Consider “ZNF124_Q15973_292+295_THIAQKPYVCNNCGK (UniProt Q15973)”, for which the “probe-labelled cysteine peptide fold change” value is -0.00504 (10 µM) and -0.315 (50 µM).

As for “ZNF579_Q8NAF0_77_LSHSGLRPHACPLCPK (UniProt Q8NAF0)”, the “probe-labelled cysteine peptide fold change” value is -0.134 (10 µM) and -0.0032 (50 µM).

Consider “ZNF428_Q96B54_111_SPLGEAPPGTPPCR (UniProt Q96B54)”, for which the “probe-labelled cysteine peptide fold change” value is -0.138 (10 µM) and -0.32 (50 µM).
